Differences between knockout arms are mostly noise.
Test system: MDA-MB-231
Test: relative cell number vs DMSO control (72 h) (% of DMSO); higher = less growth inhibition (more cells)
Protocol: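 QMAP-Seq: a pool of 5 breast cancer cell lines (ZR-75-1, SKBR3, HCC-38, MDA-MB-231, BT-20), each carrying 12 doxycycline-inducible Cas9 sgRNA perturbations (11 knockouts plus non-targeting sgNT), was treated with compounds for 72 h at four 10-fold doses (10 nM-10 uM or 1 nM-1 uM range). Barcodes were amplified and sequenced, and cell number was interpolated from 293T spike-in standard curves. The result is expressed as % of the median of DMSO wells. Two biological replicates.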

CCc1c2c(nc3ccc(O)cc13)-c1cc3c(c(=O)n1C2)COC(=O)[C@]3(O)CC [SN38]
Details	relative cell number
sgRNA knockout: sgATF3, 1 nM	74.9
sgRNA knockout: sgATF3, 10 nM	25.2
sgRNA knockout: sgATF3, 100 nM	23.7
sgRNA knockout: sgATF3, 1000 nM	25.2
sgRNA knockout: sgATF4, 1 nM	56.1
sgRNA knockout: sgATF4, 10 nM	34.1
sgRNA knockout: sgATF4, 100 nM	22.2
sgRNA knockout: sgATF4, 1000 nM	25.71
sgRNA knockout: sgATF6, 1 nM	92.8
sgRNA knockout: sgATF6, 10 nM	45.4
sgRNA knockout: sgATF6, 100 nM	23.8
sgRNA knockout: sgATF6, 1000 nM	21
sgRNA knockout: sgATG7, 1 nM	82.1
sgRNA knockout: sgATG7, 10 nM	32.6
sgRNA knockout: sgATG7, 100 nM	21
sgRNA knockout: sgATG7, 1000 nM	17.4
sgRNA knockout: sgERN1, 1 nM	83.4
sgRNA knockout: sgERN1, 10 nM	29.6
sgRNA knockout: sgERN1, 100 nM	27.3
sgRNA knockout: sgERN1, 1000 nM	19.6
sgRNA knockout: sgHSF1, 1 nM	80
sgRNA knockout: sgHSF1, 10 nM	27.8
sgRNA knockout: sgHSF1, 100 nM	19.6
sgRNA knockout: sgHSF1, 1000 nM	17.4
sgRNA knockout: sgHSF2, 1 nM	89.2
sgRNA knockout: sgHSF2, 10 nM	32.5
sgRNA knockout: sgHSF2, 100 nM	21.5
sgRNA knockout: sgHSF2, 1000 nM	19.1
sgRNA knockout: sgKEAP1, 1 nM	85.3
sgRNA knockout: sgKEAP1, 10 nM	43.4
sgRNA knockout: sgKEAP1, 100 nM	16.6
sgRNA knockout: sgKEAP1, 1000 nM	18.5
sgRNA knockout: sgNFE2L2, 1 nM	77.3
sgRNA knockout: sgNFE2L2, 10 nM	25.1
sgRNA knockout: sgNFE2L2, 100 nM	26.8
sgRNA knockout: sgNFE2L2, 1000 nM	20.9
sgRNA knockout: sgSLC35F2, 1 nM	80.3
sgRNA knockout: sgSLC35F2, 10 nM	34.3
sgRNA knockout: sgSLC35F2, 100 nM	20.1
sgRNA knockout: sgSLC35F2, 1000 nM	19.4
sgRNA knockout: sgXBP1, 1 nM	91.95
sgRNA knockout: sgXBP1, 10 nM	33.9
sgRNA knockout: sgXBP1, 100 nM	19.9
sgRNA knockout: sgXBP1, 1000 nM	20.7

CC(=O)Nc1nc(C)c(S(=O)(=O)Nc2ccc(C(O)(C(F)(F)F)C(F)(F)F)cc2)s1 [SR1001]
Details	relative cell number
sgRNA knockout: sgATF3, 10 nM	113
sgRNA knockout: sgATF3, 100 nM	98.1
sgRNA knockout: sgATF3, 1000 nM	97
sgRNA knockout: sgATF3, 10000 nM	106
sgRNA knockout: sgATF4, 10 nM	152
sgRNA knockout: sgATF4, 100 nM	96.2
sgRNA knockout: sgATF4, 1000 nM	128
sgRNA knockout: sgATF4, 10000 nM	127
sgRNA knockout: sgATF6, 10 nM	92.9
sgRNA knockout: sgATF6, 100 nM	89.2
sgRNA knockout: sgATF6, 1000 nM	116
sgRNA knockout: sgATF6, 10000 nM	107
sgRNA knockout: sgATG7, 10 nM	80.9
sgRNA knockout: sgATG7, 100 nM	95.6
sgRNA knockout: sgATG7, 1000 nM	134
sgRNA knockout: sgATG7, 10000 nM	93.3
sgRNA knockout: sgERN1, 10 nM	95
sgRNA knockout: sgERN1, 100 nM	98.17
sgRNA knockout: sgERN1, 1000 nM	109
sgRNA knockout: sgERN1, 10000 nM	115
sgRNA knockout: sgHSF1, 10 nM	82.6
sgRNA knockout: sgHSF1, 100 nM	72.3
sgRNA knockout: sgHSF1, 1000 nM	84.17
sgRNA knockout: sgHSF1, 10000 nM	97.62
sgRNA knockout: sgHSF2, 10 nM	116
sgRNA knockout: sgHSF2, 100 nM	98.6
sgRNA knockout: sgHSF2, 1000 nM	114
sgRNA knockout: sgHSF2, 10000 nM	110
sgRNA knockout: sgKEAP1, 10 nM	111
sgRNA knockout: sgKEAP1, 100 nM	93.7
sgRNA knockout: sgKEAP1, 1000 nM	115
sgRNA knockout: sgKEAP1, 10000 nM	90.67
sgRNA knockout: sgNFE2L2, 10 nM	97.9
sgRNA knockout: sgNFE2L2, 100 nM	89
sgRNA knockout: sgNFE2L2, 1000 nM	136
sgRNA knockout: sgNFE2L2, 10000 nM	128
sgRNA knockout: sgSLC35F2, 10 nM	88.9
sgRNA knockout: sgSLC35F2, 100 nM	88.8
sgRNA knockout: sgSLC35F2, 1000 nM	105
sgRNA knockout: sgSLC35F2, 10000 nM	88.3
sgRNA knockout: sgXBP1, 10 nM	97.5
sgRNA knockout: sgXBP1, 100 nM	93.7
sgRNA knockout: sgXBP1, 1000 nM	116
sgRNA knockout: sgXBP1, 10000 nM	118

CC(C)[C@H](O)C(=O)N[C@@H](C)C(=O)N[C@@H]1C(=O)N(C)CCc2ccccc21 [Semagacestat]
Details	relative cell number
sgRNA knockout: sgATF3, 10 nM	115
sgRNA knockout: sgATF3, 100 nM	92.6
sgRNA knockout: sgATF3, 1000 nM	90.4
sgRNA knockout: sgATF3, 10000 nM	96.2
sgRNA knockout: sgATF4, 10 nM	99.7
sgRNA knockout: sgATF4, 100 nM	103
sgRNA knockout: sgATF4, 1000 nM	76.3
sgRNA knockout: sgATF4, 10000 nM	77.6
sgRNA knockout: sgATF6, 10 nM	84.1
sgRNA knockout: sgATF6, 100 nM	107
sgRNA knockout: sgATF6, 1000 nM	112
sgRNA knockout: sgATF6, 10000 nM	102
sgRNA knockout: sgATG7, 10 nM	111.2
sgRNA knockout: sgATG7, 100 nM	84.2
sgRNA knockout: sgATG7, 1000 nM	82.9
sgRNA knockout: sgATG7, 10000 nM	76.1
sgRNA knockout: sgERN1, 10 nM	89.6
sgRNA knockout: sgERN1, 100 nM	129
sgRNA knockout: sgERN1, 1000 nM	79.9
sgRNA knockout: sgERN1, 10000 nM	95.92
sgRNA knockout: sgHSF1, 10 nM	94.7
sgRNA knockout: sgHSF1, 100 nM	87.2
sgRNA knockout: sgHSF1, 1000 nM	79.7
sgRNA knockout: sgHSF1, 10000 nM	70.8
sgRNA knockout: sgHSF2, 10 nM	100
sgRNA knockout: sgHSF2, 100 nM	92
sgRNA knockout: sgHSF2, 1000 nM	87.7
sgRNA knockout: sgHSF2, 10000 nM	81.7
sgRNA knockout: sgKEAP1, 10 nM	86.9
sgRNA knockout: sgKEAP1, 100 nM	80.3
sgRNA knockout: sgKEAP1, 1000 nM	98.1
sgRNA knockout: sgKEAP1, 10000 nM	110
sgRNA knockout: sgNFE2L2, 10 nM	109
sgRNA knockout: sgNFE2L2, 100 nM	86.5
sgRNA knockout: sgNFE2L2, 1000 nM	88.5
sgRNA knockout: sgNFE2L2, 10000 nM	67.4
sgRNA knockout: sgSLC35F2, 10 nM	126
sgRNA knockout: sgSLC35F2, 100 nM	94
sgRNA knockout: sgSLC35F2, 1000 nM	96
sgRNA knockout: sgSLC35F2, 10000 nM	92
sgRNA knockout: sgXBP1, 10 nM	127
sgRNA knockout: sgXBP1, 100 nM	86.9
sgRNA knockout: sgXBP1, 1000 nM	94.7
sgRNA knockout: sgXBP1, 10000 nM	97.1

From the supplement of paper PMC7661543
